{"source": "PubChem BioAssay AID1159578 (Peter MacCallum Cancer Centre, 2015)", "test": "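Genome-wide hunt for genes controlling movement of lymphatic endothelial cells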 (primary screen)", "system": "human lymphatic endothelial cells", "reagents": "siRNA pool against human genes, 40 nM", "time to read-out": "48 h after transfection", "detection": "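High-content imaging of dye-stained cells in a scratch assay measures filled wound area and nuclei per well; duplicate means given as ratio to mock and robust z-score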", "direction": "migration robust z-score: higher = faster migration into the scratch; nuclei per well: higher = more cells in the well", "active means": "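Migration changed when robust z exceeds 2 or falls below -2 and mean nuclei number is at least 3300; otherwise not called changed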", "calls": "active = migration changed; inactive = no migration change, or too few cells", "note": "The whole screen tested about 18,000 reagents; shown is a random part of them. About 1,030 of all reagents (5.7%) count as active. 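Inactive calls also include pools with fewer than 3300 nuclei, whose migration was not assessed.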 The raw values are shown without normalisation. A number with no mark means an inactive call. Further read-outs or replicates are left out here."}
{"gene": "APPL2 (GeneID 55198)", "PubChem SID": "SID255358492", "migration robust z-score": 0.05, "migration class with cell-count check": "migration z between -2 and 2; enough cells", "nuclei per well, duplicate mean": 4420}
{"gene": "KIF1A (GeneID 547)", "PubChem SID": "SID255348486", "migration robust z-score": -0.2, "migration class with cell-count check": "migration z between -2 and 2; enough cells", "nuclei per well, duplicate mean": 5822}
{"gene": "SLC22A14 (GeneID 9389)", "PubChem SID": "SID255354239", "migration robust z-score": 1.18, "migration class with cell-count check": "migration z between -2 and 2; enough cells", "nuclei per well, duplicate mean": 5852}
{"gene": "RAP1GAP (GeneID 5909)", "PubChem SID": "SID255352041", "migration robust z-score": -1.29, "migration class with cell-count check": "migration z between -2 and 2; enough cells", "nuclei per well, duplicate mean": 5168}
{"gene": "CDO1 (GeneID 1036)", "PubChem SID": "SID255348853", "migration robust z-score": 0.26, "migration class with cell-count check": "migration z between -2 and 2; enough cells", "nuclei per well, duplicate mean": 7481}
{"gene": "SLA2 (GeneID 84174)", "PubChem SID": "SID255361228", "migration robust z-score": -0.34, "migration class with cell-count check": "migration z between -2 and 2; enough cells", "nuclei per well, duplicate mean": 5683}
{"gene": "ZNF14 (GeneID 7561)", "PubChem SID": "SID255353189", "migration robust z-score": -0.93, "migration class with cell-count check": "migration z between -2 and 2; enough cells", "nuclei per well, duplicate mean": 7586}
{"gene": "CEP43 (GeneID 11116)", "PubChem SID": "SID255355603", "migration robust z-score": 0.76, "migration class with cell-count check": "migration z between -2 and 2; enough cells", "nuclei per well, duplicate mean": 6708}
{"gene": "SIRT7 (GeneID 51547)", "PubChem SID": "SID255357778", "migration robust z-score": -0.13, "migration class with cell-count check": "migration z between -2 and 2; enough cells", "nuclei per well, duplicate mean": 5880}
{"gene": "CHD4 (GeneID 1108)", "PubChem SID": "SID255348897", "migration robust z-score": "-2.08 (active)", "migration class with cell-count check": "migration z below -2; enough cells", "nuclei per well, duplicate mean": 4318}
{"gene": "GOSR1 (GeneID 9527)", "PubChem SID": "SID255354346", "migration robust z-score": 0.18, "migration class with cell-count check": "migration z between -2 and 2; enough cells", "nuclei per well, duplicate mean": 5880}
{"gene": "ATP5IF1 (GeneID 93974)", "PubChem SID": "SID255362097", "migration robust z-score": 0.52, "migration class with cell-count check": "migration z between -2 and 2; enough cells", "nuclei per well, duplicate mean": 5244}
{"gene": "GPN2 (GeneID 54707)", "PubChem SID": "SID255358130", "migration robust z-score": -0.59, "migration class with cell-count check": "migration z between -2 and 2; enough cells", "nuclei per well, duplicate mean": 6166}
{"gene": "HCG27 (GeneID 253018)", "PubChem SID": "SID255364413", "migration robust z-score": -0.66, "migration class with cell-count check": "migration z between -2 and 2; enough cells", "nuclei per well, duplicate mean": 7411}

Sorted by “migration robust z-score” (highest first): 2 of the entries above.
{"gene": "ATP5IF1 (GeneID 93974)", "PubChem SID": "SID255362097", "migration robust z-score": 0.52, "migration class with cell-count check": "migration z between -2 and 2; enough cells", "nuclei per well, duplicate mean": 5244}
{"gene": "GOSR1 (GeneID 9527)", "PubChem SID": "SID255354346", "migration robust z-score": 0.18, "migration class with cell-count check": "migration z between -2 and 2; enough cells", "nuclei per well, duplicate mean": 5880}
